No constants are given. Whether binding was seen depends on the method and setting. Binding seen in cells or lysates may run through a third protein. Some entries that bind do so weakly or less than the wild type. Tags and fused reporters may be left off the sequences shown.
How the values were obtained:
[1] = biological target: T1, Human CatSperζ, V5-tagged (phCMV3-hCatSperz-V5) (human) (UniProt Q9NTU4); assay: co-IP; proteins co-expressed transiently in HEK293T cells; lysis in 1% Triton X-100 in PBS with protease inhibitors; supernatant incubated with anti-V5 agarose, anti-FLAG affinity gel or anti-HA magnetic beads at 4 °C overnight; washed three times with 1% Triton X-100 in PBS; immunoblot
T1 sequence: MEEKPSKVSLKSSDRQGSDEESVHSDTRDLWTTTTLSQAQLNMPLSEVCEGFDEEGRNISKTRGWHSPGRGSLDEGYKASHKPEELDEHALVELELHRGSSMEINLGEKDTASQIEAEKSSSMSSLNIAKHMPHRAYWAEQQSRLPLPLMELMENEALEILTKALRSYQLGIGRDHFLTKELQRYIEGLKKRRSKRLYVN

Sequences of proteins named here, by UniProt entry; tags and fusion partners are left off.
UniProt Q9DAM2: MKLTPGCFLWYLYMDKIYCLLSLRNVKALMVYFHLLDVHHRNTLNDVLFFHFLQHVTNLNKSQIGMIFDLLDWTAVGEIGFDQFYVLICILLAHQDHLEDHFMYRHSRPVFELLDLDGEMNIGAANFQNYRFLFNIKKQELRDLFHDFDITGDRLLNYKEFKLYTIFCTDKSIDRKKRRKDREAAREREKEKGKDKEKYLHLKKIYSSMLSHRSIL
UniProt A8MZ26: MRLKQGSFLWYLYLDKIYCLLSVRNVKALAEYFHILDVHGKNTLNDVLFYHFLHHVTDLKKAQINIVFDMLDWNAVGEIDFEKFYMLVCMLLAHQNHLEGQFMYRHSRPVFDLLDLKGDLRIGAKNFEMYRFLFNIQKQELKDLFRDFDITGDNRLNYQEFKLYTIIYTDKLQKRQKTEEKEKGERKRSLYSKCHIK

[2] = biological target: T2, Mouse CatSperζ, V5-tagged (pCAG-mCatSperz-V5) (mouse) (UniProt Q9CQP8); assay: as above
T2 sequence: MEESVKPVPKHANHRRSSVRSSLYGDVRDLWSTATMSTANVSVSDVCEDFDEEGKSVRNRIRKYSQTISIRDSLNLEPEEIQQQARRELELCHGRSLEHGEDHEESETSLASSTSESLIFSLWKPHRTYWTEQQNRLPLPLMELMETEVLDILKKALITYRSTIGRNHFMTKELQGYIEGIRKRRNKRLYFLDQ

Mouse EFCAB9, HA-tagged (phCMV3-mEFCAB9-HA) (from UniProt Q9DAM2 1-216)
binding [1]: binds

Human EFCAB9, HA-tagged (phCMV3-hEFCAB9-HA) (from UniProt A8MZ26 1-197)
binding [2]: binds

Source: paper PMC8147001
